## Screening data, single-dose tests

By UniProt entry, the sequences of proteins in these tests, tags left out. Residues count along the entry.
UniProt P9WFT3, whole entry: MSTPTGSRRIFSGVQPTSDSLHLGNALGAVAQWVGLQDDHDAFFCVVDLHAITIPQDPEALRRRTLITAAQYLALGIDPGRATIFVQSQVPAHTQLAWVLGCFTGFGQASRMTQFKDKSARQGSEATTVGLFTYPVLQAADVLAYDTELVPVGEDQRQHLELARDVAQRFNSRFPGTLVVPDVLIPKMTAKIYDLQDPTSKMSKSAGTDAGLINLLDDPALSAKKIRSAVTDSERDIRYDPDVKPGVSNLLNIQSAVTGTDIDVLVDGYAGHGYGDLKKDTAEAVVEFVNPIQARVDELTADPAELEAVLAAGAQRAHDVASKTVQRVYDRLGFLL
UniProt A4I591, 1-473: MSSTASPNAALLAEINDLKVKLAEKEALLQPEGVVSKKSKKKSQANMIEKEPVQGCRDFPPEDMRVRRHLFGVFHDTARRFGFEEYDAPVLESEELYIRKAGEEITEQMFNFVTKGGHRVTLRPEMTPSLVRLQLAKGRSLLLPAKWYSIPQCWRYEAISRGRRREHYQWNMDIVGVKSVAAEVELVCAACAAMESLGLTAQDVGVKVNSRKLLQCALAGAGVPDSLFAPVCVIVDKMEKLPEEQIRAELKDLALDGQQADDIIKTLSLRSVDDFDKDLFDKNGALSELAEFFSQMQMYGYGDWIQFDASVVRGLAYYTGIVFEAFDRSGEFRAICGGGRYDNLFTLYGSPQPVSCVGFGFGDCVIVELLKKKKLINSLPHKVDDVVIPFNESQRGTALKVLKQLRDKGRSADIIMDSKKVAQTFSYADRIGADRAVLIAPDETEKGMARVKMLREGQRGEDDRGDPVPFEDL

A: 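Enzyme assay of tryptophanyl-tRNA synthetase; the read-out is not stated. Target: Tryptophan-tRNA ligase, Mycobacterium tuberculosis (UniProt P9WFT3). Tested at 10 µM. Direction is not recorded; retested compounds ran higher, which suggests that high means inhibition. Size under these conditions: about 65,000 compounds, about 64 of them at 50% or above in at least one test.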
B: 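Enzyme assay of histidyl-tRNA synthetase; the read-out is not stated. Target: Histidine-tRNA ligase, Leishmania infantum (UniProt A4I591). Tested at 30 µM. Higher reads as stronger inhibition (inferred: compounds with an IC50 in retests scored well above the rest). The assay is labelled LdHisRS but filed under L. infantum. Size under these conditions: about 69,000 compounds, about 410 of them at 50% or above in at least one test.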

Each number is a percent effect as filed. The controls that fix the scale are not given in the record; negative values are as filed. This is an unselected part of the compounds tested.

{"structure": "CN(Cc1nccn1C)C(=O)c1cccc(CCC(C)(C)O)c1", "A": -5.093, "B": 13.54}
{"structure": "CN(c1cccnn1)C1CCN(C(=O)c2ccc3c(c2)COC3)CC1", "A": -0.7194, "B": 5.479}
{"structure": "Cn1ccnc1CNC(=O)N(CCCO)C1CCCc2ccccc21", "stereo": "stereo not drawn", "A": 3.496, "B": 11.43}
{"structure": "COc1ccc(NC(=O)NC(C)c2nc[nH]n2)cc1", "stereo": "stereo not drawn", "A": 0, "B": 18.87}
{"structure": "Fc1ccccc1CN1CCC(c2noc(-c3ccccn3)n2)CC1", "A": 0.07807, "B": 5.674}
{"structure": "Cc1cnc(N2CCC3(CC2)CN(c2ccsc2)C(=O)CO3)nc1", "A": -3.66, "B": 16}
{"structure": "CCOc1cc2c(cc1CN1CCC3(CC1)CNC(=O)C3)CCC2", "A": 3.759, "B": 0}
{"structure": "COc1cccc(CNC(=O)CC2CSc3nc(C)c(C)c(=O)n32)c1", "stereo": "stereo not drawn", "A": 1.908, "B": 24.72}
{"structure": "Cc1nn(C)cc1-c1ccnc(N2CCSCC2)n1", "A": -2.668, "B": 8.333}
{"structure": "CN(C)C(=O)CN1CCC2(CCCN(Cc3cccs3)C2)C1=O", "stereo": "stereo not drawn", "A": -0.3791, "B": 13}
{"structure": "Cc1cnccc1NCCNC1CCN(CC(C)C)CC1", "A": 0.5939, "B": 21.95}
{"structure": "COCC(=O)N[C@H](C)c1onc(-c2ccc(OC)cc2)c1C(=O)O", "A": -1.29, "B": -9.459}
{"structure": "Cc1ccc([C@@H]2CN(C(=O)c3ccon3)C[C@H]2NC(=O)C2CC2)cc1", "A": -0.486, "B": 8.333}
{"structure": "CCOc1cc(C(=O)N2CCOCC2)cc2occc12", "A": 1.91, "B": 23.46}
{"structure": "CCCNC(=O)NC(=O)CNc1c(F)cccc1N1CCCC1", "A": 0, "B": 17.07}
{"structure": "Cn1cc(C2CCCN2C(=O)c2cnc(C3CC3)s2)cn1", "stereo": "stereo not drawn", "A": 1.161, "B": 11.7}
{"structure": "Cc1nc2cc(=O)[nH]n2c(C)c1CC(=O)NC(C)C", "A": 0.5201, "B": 10.96}
{"structure": "Cc1ccc(Oc2ncccc2CNC2Cc3ccccc3C2)cn1", "A": 4.134, "B": 6.557}
{"structure": "CCCS(=O)(=O)N1CCO[C@H]2[C@@H](Oc3cccnc3)CC[C@@H]21", "A": -3.393, "B": 16.44}
{"structure": "CC(Cn1cccn1)NCc1csc(Cc2ccccc2)n1", "stereo": "stereo not drawn", "A": -9.181, "B": 18.42}
{"structure": "O=C(CC1CCCC1)N[C@H]1CN(Cc2c[nH]cn2)C[C@@H]1C1CC1", "A": 5.14, "B": 12.77}
{"structure": "COCC1CN(Cc2ccc(F)cc2)Cc2nn(C)cc21", "stereo": "stereo not drawn", "A": 6.035, "B": 8.257}
{"structure": "Cc1ccc(NC2CCN(C(=O)Cc3csc(C)n3)CC2)nn1", "A": -2.895, "B": 19.05}
{"structure": "CN(C)C(C(=O)N1CCC(N2CCSCC2)CC1)c1ccccc1F", "stereo": "stereo not drawn", "A": -1.517, "B": 6.731}
{"structure": "COc1ncc(NC(=O)Nc2cc(C)ccc2OC)cn1", "A": 17.75, "B": 12.62}
{"structure": "CCCN1CCCC2(CCN(c3nccc(OC)n3)C2)C1=O", "stereo": "stereo not drawn", "A": 1.644, "B": 16}
{"structure": "Cc1nn(C)cc1CN1C[C@@H]2CC[C@H](C1)N(Cc1c(C)noc1C)C2=O", "A": 14.68, "B": -6.061}
{"structure": "CCOCCC1(CNC(=O)c2ccc(C)nc2)CCCC1", "A": 0.7227, "B": 15.04}
{"structure": "CC(NC(=O)NCCn1ccnc1)c1ccc2c(c1)OCCCO2", "stereo": "stereo not drawn", "A": -8.94, "B": 8.475}
{"structure": "Cc1cccc(C(=O)N2CCN(S(C)(=O)=O)[C@@H](C)C2)c1Cl", "A": 2.956, "B": 17.28}
{"structure": "O=C(NCc1nncn1-c1ccccc1)C1CC1", "A": 0.9887, "B": 11.4}
{"structure": "CC(=O)c1c(C)cc(C)c(CS(=O)(=O)c2nccn2C)c1C", "A": -3.037, "B": 1.299}

Some entries from above, unchanged:

{"structure": "Cc1ccc(NC2CCN(C(=O)Cc3csc(C)n3)CC2)nn1", "A": -2.895, "B": 19.05}
{"structure": "CCCN1CCCC2(CCN(c3nccc(OC)n3)C2)C1=O", "stereo": "stereo not drawn", "A": 1.644, "B": 16}
{"structure": "Cc1nn(C)cc1CN1C[C@@H]2CC[C@H](C1)N(Cc1c(C)noc1C)C2=O", "A": 14.68, "B": -6.061}
{"structure": "CN(c1cccnn1)C1CCN(C(=O)c2ccc3c(c2)COC3)CC1", "A": -0.7194, "B": 5.479}

Data taken from ChEMBL document CHEMBL3988442, “University of Dundee, Small-Polar-MMV Screening Library” (2021).